Primary screen of a compound library

Amino acid sequences for entries named in this document (tags omitted).
UniProt E9BF75, entry or part of it: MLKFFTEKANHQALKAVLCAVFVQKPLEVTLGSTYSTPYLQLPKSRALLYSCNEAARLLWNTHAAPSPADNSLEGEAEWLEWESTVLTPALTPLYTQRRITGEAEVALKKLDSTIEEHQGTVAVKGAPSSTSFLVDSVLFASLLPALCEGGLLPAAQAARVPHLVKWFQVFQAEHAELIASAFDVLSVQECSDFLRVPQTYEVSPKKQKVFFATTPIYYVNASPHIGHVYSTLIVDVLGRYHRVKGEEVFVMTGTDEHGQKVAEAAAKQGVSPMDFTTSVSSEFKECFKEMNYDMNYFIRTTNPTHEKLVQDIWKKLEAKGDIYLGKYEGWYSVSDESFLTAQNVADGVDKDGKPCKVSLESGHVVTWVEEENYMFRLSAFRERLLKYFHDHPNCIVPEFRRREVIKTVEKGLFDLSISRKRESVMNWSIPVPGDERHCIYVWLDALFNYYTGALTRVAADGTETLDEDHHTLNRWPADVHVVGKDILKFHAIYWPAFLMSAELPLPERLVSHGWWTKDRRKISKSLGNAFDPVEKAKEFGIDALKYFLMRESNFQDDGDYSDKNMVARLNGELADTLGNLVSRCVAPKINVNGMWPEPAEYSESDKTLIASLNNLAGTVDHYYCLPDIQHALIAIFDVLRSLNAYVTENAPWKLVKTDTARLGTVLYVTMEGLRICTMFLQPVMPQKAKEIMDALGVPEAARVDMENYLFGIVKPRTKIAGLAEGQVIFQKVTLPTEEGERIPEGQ

The values are deposited in ChEMBL (CHEMBL3988442, “University of Dundee, Small-Polar-MMV Screening Library” (2021)).

A: 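Methionyl-tRNA synthetase (putative), Leishmania donovani (UniProt E9BF75). Primary screen of methionyl-tRNA synthetase; the read-out is not stated. The test concentration is not given. The values are filed as inhibition. About 68,000 compounds were tested under these conditions; 0.035% (about 24) showed 50% or more at least once.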
B: 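Assay on Mycobacterium tuberculosis, filed only as a heat shock assay from Cornell; the read-out is not stated. The concentration is filed as 10 mM, unlikely as a test dose, so the dose is not known. Higher reads as stronger inhibition (inferred: compounds with an IC50 in retests scored well above the rest). Size under these conditions: about 69,000 compounds, about 930 of them at 50% or above in at least one test.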

Results are percentages, as filed. The record does not define 0% and 100%; most values in the screen are far below 50% and negative numbers occur (in some assays of this library far below -100). The compounds are a random part of those screened. A dash means the value is not listed here; it may have been measured.

| # | SMILES | A | B |
|---|---|---|---|
| 1 | `Cn1ccnc1-c1cccc(NC(=O)NCCN2CCOCC2)c1` | 15.93 | -6.729 |
| 2 | `NC(=O)C1=NC2=NS(=O)(=O)c3ccccc3N2N1Cc1ccc(Br)cc1` | 21.11 | 23.9 |
| 3 | `CC(C)n1ccnc1CN1CCCC1c1cccc(-n2ccnc2)n1` (stereo not shown) | 12.86 | 3.986 |
| 4 | `CC(C)(C)OC(=O)NC1(c2noc(-c3ccoc3)n2)CCC1` | 19.61 | 4.082 |
| 5 | `CN(C)CC(=O)N1CCC2(CC(=O)N(c3cccc(C#N)c3)C2)C1` (stereo not shown) | 9.013 | - |
| 6 | `O=C(CC1CCCC1)N1CCN(c2ccc(-n3cncn3)nn2)CC1` | 5.036 | 10.33 |
| 7 | `O=S(=O)(Cc1ccccc1)c1nnc(N2CCOCC2)s1` | 15.47 | 5.779 |
| 8 | `c1cnc(N2CCC3(CCCN(Cc4ccncc4)C3)CC2)nc1` | 5.333 | - |
| 9 | `CN1CC2(COCCN(C(=O)c3ccco3)C2)OCC1=O` (stereo not shown) | 11.3 | -2.633 |
| 10 | `Cc1cc(NCc2ccc(CO)cc2)n2nc(C)cc2n1` | 18.04 | 10.67 |
| 11 | `O=C(O)C(F)(F)F.O=C(O)C(F)(F)F.[H][C@@]12CCCO[C@]1([H])[C@H](N(C)Cc1ccco1)CN2CC1CCOCC1` | - | -3.776 |
| 12 | `CCOc1ccc(NC(=O)c2cccc(OC)c2OC)cc1` | 14.76 | -15.91 |
| 13 | `N#Cc1ccc(CN(CC(N)=O)C2CCCC2)c(Br)c1` | 12.43 | -5.961 |
| 14 | `Cc1c(C)c2c(c(C)c1O)CC[C@](C)(C(=O)O)O2` | 8.056 | 10.16 |
| 15 | `Cc1noc([C@@H]2C[C@H](NC(=O)NC3CCCCC3)CN2C)n1` | 5.763 | 6.468 |
| 16 | `CC(C)c1nnc2n1CCN(C(=O)c1ccnc(N(C)C)c1)C2` | 16.78 | 0.9204 |
| 17 | `Clc1cccc(CNc2cnn(CCN3CCCCC3)c2)c1` | 4.789 | 5.581 |
| 18 | `O=C(Nc1nccs1)NC1CCN(Cc2ccccc2)C1` (stereo not shown) | 9.816 | 31.24 |
| 19 | `O=C(O)C(F)(F)F.[H][C@@]12CCCO[C@]1([H])[C@@H](Oc1cccnc1)CN2C(=O)CC1CCCC1` | - | 0.71 |
| 20 | `O=S(=O)(c1cc(F)ccc1N1CC(n2cccn2)C1)C(F)(F)F` | 15.18 | 13.91 |
| 21 | `COc1ncccc1CN1CCn2c(C(=O)N3CCCC3)cnc2C1` | -10.28 | - |
| 22 | `CN(CC1COCCO1)c1ncnc2cc(F)ccc12` (stereo not shown) | 9.148 | -16.91 |
| 23 | `CC(=O)N1CCCC2(CCC(=O)N2Cc2cccnc2)C1` (stereo not shown) | 10.08 | - |
| 24 | `COc1cc(NC(=O)CCn2nc(-c3cccs3)oc2=O)cc(OC)c1` | 8.659 | 7.518 |
| 25 | `CCC(O)CN1CCN(C(=O)Cc2c(C)nc(C)[nH]c2=O)CC1` (stereo not shown) | 8.424 | 4.464 |
| 26 | `Cc1n[nH]c2c1C(c1ccc(Br)cc1)SCC(=O)N2` (stereo not shown) | 10.08 | 20.99 |
| 27 | `COc1ccccc1CC(=O)NS(=O)(=O)c1ccc(C#N)cc1` | 11.93 | 10.26 |
| 28 | `COc1cn(-c2ccccc2)nc1C(=O)NCCCN1CCCC(C)C1` (stereo not shown) | 17.41 | 12.17 |
| 29 | `CN(Cc1ccc(F)cc1)CC1(O)CCN(C(=O)c2ccsc2)C1` (stereo not shown) | 3.646 | -29.4 |
| 30 | `COc1c[nH]c(C(=O)N2CCN(c3ccccc3)CC2)cc1=O` | 21.45 | -16.78 |
| 31 | `CCCn1cc(S(=O)(=O)N[C@H]2CN(CC(N)=O)C[C@@H]2C2CC2)cn1` | 12.64 | 1.154 |
| 32 | `Fc1ccccc1CN1CCC[C@H](Cn2nnc(-c3cccs3)n2)C1` | 19.19 | 14.92 |
| 33 | `NC[C@H]1CC[C@H](C(NC(=O)c2cccc(F)c2)c2ccccn2)CC1` (stereo partly shown) | 35.31 | 107.2 |
| 34 | `CC(C)c1cc(CN(C)C(=O)C(C)N2CCc3ccccc3C2)no1` (stereo not shown) | -2.688 | -4.958 |
| 35 | `COc1ccc(C2CCCCCN2S(N)(=O)=O)cc1` (stereo not shown) | 3.722 | -4.006 |
| 36 | `COc1cc(C)cc(C(C(=O)O)N2CCN(C3CCCC3)CC2)c1OC` (stereo not shown) | - | -18.35 |
| 37 | `CCN(CC1CCOC1)C(=O)Nc1ccc(N2CCCC2)nc1` (stereo not shown) | 18.4 | 4.122 |
| 38 | `O=C1NC2(CCN(C(=O)Cc3ccsc3)CC2)CC1c1ccccc1` (stereo not shown) | 9.929 | 5.62 |
| 39 | `O=C(NCC1CC1)[C@@H]1C[C@@H]2CCN(Cc3ccoc3)C[C@@H]2O1` | 7.397 | - |
| 40 | `O=C(c1cnc(Nc2ccccc2)nc1)N1CCCC2(CCNC2)C1` (stereo not shown) | 21.56 | 30.38 |
| 41 | `Cc1noc(C)c1-c1cncc(C2CCCN2Cc2cn(C)cn2)n1` (stereo not shown) | 19.42 | -5.474 |
| 42 | `COc1cc(N2CCO[C@H]3[C@@H](Oc4cccnc4)CC[C@@H]32)ncn1` | 0 | - |
| 43 | `CC(C)CC(C(=O)N(C)Cc1ncnn1C)N1CCCCC1=O` (stereo not shown) | 11.59 | 6.393 |

Repeated from the top, 4 entries:

SMILES	A	B
Cn1ccnc1-c1cccc(NC(=O)NCCN2CCOCC2)c1	15.93	-6.729
NC(=O)C1=NC2=NS(=O)(=O)c3ccccc3N2N1Cc1ccc(Br)cc1	21.11	23.9
CC(C)n1ccnc1CN1CCCC1c1cccc(-n2ccnc2)n1 (stereo not shown)	12.86	3.986
CC(C)(C)OC(=O)NC1(c2noc(-c3ccoc3)n2)CCC1	19.61	4.082